From article doi:10.1101/2023.09.17.558147
No constants are given. Whether binding was seen depends on the method and setting. Binding seen in cells or lysates may run through a third protein. Here binding means that the protein was enriched with, or labelled near, the bait; the list need not be complete. For some assays here: A no says only that the protein was not detected with the bait.

Legend:
Assay in all cases: proximity labelling
[1] = target: T1, Msh5-TurboID (S. cerevisiae) (UniProt Q12175)
T1 sequence: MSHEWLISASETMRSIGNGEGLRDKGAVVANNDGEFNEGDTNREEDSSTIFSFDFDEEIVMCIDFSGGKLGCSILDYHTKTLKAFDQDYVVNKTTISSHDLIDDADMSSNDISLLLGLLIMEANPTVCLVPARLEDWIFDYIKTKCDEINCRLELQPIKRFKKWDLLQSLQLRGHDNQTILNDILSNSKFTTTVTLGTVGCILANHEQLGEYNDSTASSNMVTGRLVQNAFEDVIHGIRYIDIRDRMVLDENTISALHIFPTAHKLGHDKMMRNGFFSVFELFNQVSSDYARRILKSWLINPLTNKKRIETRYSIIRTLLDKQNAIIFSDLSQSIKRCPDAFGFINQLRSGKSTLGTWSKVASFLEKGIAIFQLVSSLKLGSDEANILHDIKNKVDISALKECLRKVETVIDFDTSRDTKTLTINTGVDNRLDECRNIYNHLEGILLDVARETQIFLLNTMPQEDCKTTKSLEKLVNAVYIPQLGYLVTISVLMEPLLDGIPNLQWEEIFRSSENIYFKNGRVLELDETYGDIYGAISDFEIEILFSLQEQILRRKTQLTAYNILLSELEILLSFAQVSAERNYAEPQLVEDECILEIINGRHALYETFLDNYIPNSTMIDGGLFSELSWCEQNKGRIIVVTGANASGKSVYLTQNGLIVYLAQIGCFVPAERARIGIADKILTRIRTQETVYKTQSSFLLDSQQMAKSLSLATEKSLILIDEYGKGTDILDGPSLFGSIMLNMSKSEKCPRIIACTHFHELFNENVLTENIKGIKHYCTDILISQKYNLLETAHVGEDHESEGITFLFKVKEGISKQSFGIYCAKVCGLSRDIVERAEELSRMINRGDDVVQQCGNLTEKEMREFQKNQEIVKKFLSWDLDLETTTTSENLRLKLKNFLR

[2] = target: T2, TurboID-Gmc2 (S. cerevisiae) (UniProt Q06201)
T2 sequence: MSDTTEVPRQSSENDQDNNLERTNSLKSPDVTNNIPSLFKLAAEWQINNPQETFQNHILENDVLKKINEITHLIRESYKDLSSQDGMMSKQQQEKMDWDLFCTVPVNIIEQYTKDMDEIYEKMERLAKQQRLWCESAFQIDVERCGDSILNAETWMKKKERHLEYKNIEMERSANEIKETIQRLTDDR

[3] = target: T3, Ecm11-TurboID (S. cerevisiae) (UniProt Q04110)
T3 sequence: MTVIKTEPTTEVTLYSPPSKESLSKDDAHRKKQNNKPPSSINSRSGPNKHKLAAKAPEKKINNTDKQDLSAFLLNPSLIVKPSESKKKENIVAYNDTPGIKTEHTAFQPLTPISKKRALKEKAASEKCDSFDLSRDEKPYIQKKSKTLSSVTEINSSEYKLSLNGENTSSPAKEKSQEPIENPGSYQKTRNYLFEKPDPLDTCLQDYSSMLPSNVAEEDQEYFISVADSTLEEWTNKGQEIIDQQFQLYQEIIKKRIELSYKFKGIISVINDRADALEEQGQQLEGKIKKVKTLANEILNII

Row | Binder | binding [1] | binding [2] | binding [3]
1 | Zip1 (protein, UniProt P31111 1-875) MSNFFRDSSMGFKPRPNIFAKLRVRDVDSDSSANTVVENSSNCLDVGSSIEGDDTFKKPHKTSTEQELITSMSLSQRNHGYSDDMEIGSPKKTTSTDQYNRILKNDVAAIENDTDEDFEITEVREVSEGVAKETKESHGDPNDSETTLKDSKMHEYTMTNGKAPLHTSINNSSTSSNDVLLEAFTNTQRICSNLKQELQKQQQDNAKLKVRLQSYASNSDKINEKVGKYKSCLETLQERIATLTSHKNNQETKLKDLRQNHQLYQRRISGFKTSIENLNKTINDLGKNKKEADAELMKKGKEIEYLKRELDDCSGQLSEEKIKNSSLIQEMGKNREEMIKSIENFFSEDKAHHLLQFNKFEERVHDLFEKKLQKHFDVAKDTLNVGLRNTTVELSSNTETMLKQQYEDIKENLEQKMSSSKDEMAKTINELSVTQKGLIMGVQEELLTSSGNIQTALVSEMNNTRQELLDDASQTAKNYASLENLVKAYKAEIVQSNEYEERIKHLESERSTLSSQKNQIISSLGTKEAQYEDLVKKLEAKNIEISQISGKEQSLTEKNENLSNELKKVQDQLEKLNNLNITTKSNYENKISSQNEIVKALVSENDTLKQRIQQLVEIKENEQKDHTTKLEAFQKNNEQLQKLNVEVVQLKAHELELEEQNRHLKNCLEKKETGVEESLSDVKTLKQQVIVLKSEKQDITAEKLELQDNLESLEEVTKNLQQKVQSQKRELEQKIKELEEIKNHKRNEPSKKGTQNFTKPSDSPKKNATTSNLFPNNSAAIHSPMKKCPKVDHISKSRINSSKETSKFNDEFDLSSSSNDDLELTNPSPIQIKPVRGKIKKGSNCMKPPISSRKKLLLVEDEDQSLKISKKRRRK | binds | no binding | –
2 | Pif1 helicase (protein, UniProt P07271 46-859) RSNNFIQAQLKHPSILSKEDLDLLSDSDDWEEPDCIQLETEKQEKKIITDIHKEDPVDKKPMRDKNVMNFINKDSPLSWNDMFKPSIIQPPQLISENSFDQSSQKKSRSTGFKNPLRPALKKESSFDELQNNSISQERSLEMINENEKKKMQFGEKIAVLTQRPSFTELQNDQDDSNLNPHNGVKVKIPICLSKEQESIIKLAENGHNIFYTGSAGTGKSILLREMIKVLKGIYGRENVAVTASTGLAACNIGGITIHSFAGIGLGKGDADKLYKKVRRSRKHLRRWENIGALVVDEISMLDAELLDKLDFIARKIRKNHQPFGGIQLIFCGDFFQLPPVSKDPNRPTKFAFESKAWKEGVKMTIMLQKVFRQRGDVKFIDMLNRMRLGNIDDETEREFKKLSRPLPDDEIIPAELYSTRMEVERANNSRLSKLPGQVHIFNAIDGGALEDEELKERLLQNFLAPKELHLKVGAQVMMVKNLDATLVNGSLGKVIEFMDPETYFCYEALTNDPSMPPEKLETWAENPSKLKAAMEREQSDGEESAVASRKSSVKEGFAKSDIGEPVSPLDSSVFDFMKRVKTDDEVVLENIKRKEQLMQTIHQNSAGKRRLPLVRFKASDMSTRMVLVEPEDWAIEDENEKPLVSRVQLPLMLAWSLSIHKSQGQTLPKVKVDLRRVFEKGQAYVALSRAVSREGLQVLNFDRTRIKAHQKVIDFYLTLSSAESAYKQLEADEQVKKRKLDYAPGPKYKAKSKSKSNSPAPISATTQSNNGIAAMLQRHSRKRFQLKKESNSNQVHSLVSDEPRGQDTEDHILE | binds | no binding | binds
3 | Rim4 (protein, UniProt P38741 1-713) MKTEISTADSLRDPPSNGLKADSELVIREDIDQFLPSEVSSLGSDHQNDGEDSDTDSDNFLQDPEDDVDEESTGRGTVTTTSTSTESRGRPSSCIFVASLAAALSDDELCLSVTENFKKYGDLARVKVLRDNANRPYAFVQYNNDHDAKHALIRAQGTLLNGRRLRCEPAKVNRTLYLKNQQSIDFNEISQICEKFGGLEQIVPDRTDNQYTRRYTYPISSANSWFVQFVYRDDAIRAYANLRTDPNWIIEWAQNINVPKNYNLLHKSKFKSSKYHQNNGIINNDGSNNNDNNNSNNNNREDSRRNGDVIEEECGHVHGSDSEEKLTSDGIYDDEDKDSEITIDKRSIFVGQLDKETTREELNRRFSTHGKIQDINLIFKPTNIFAFIKYETEEAAAAALESENHAIFLNKTMHVQYKEVGGRHNRKFSGKNGGSNFNHHQFFSTRSGKTFTGPELNLAPPPINMYRKMSGGSQQESETMMPYMPMGPMPMGPPPPNAASLSDFDMFPPSYSTFMKGMMPLRRKSMPNSWSSPSSKSVNSENESVNGGDENSELPSEIPESSGRYNAANSFTTYNNSSAGNSNNNNNNNNSNSNKSQYKKRYARRSSYGYNEVPPKPYYFQPYYYHPMQYHMGPMGPLHPSQGSAGNHHPYMMVYPMSPPPPSGLDGSMIPPPINVSQSHAANHGSTHVHANEFISNDTGDINEDNKAYSLDY | binds | binds | binds
